Experimental data taken from US20220268780A1, “METHODS OF PREDICTING ENDOMETRIAL RECEPTIVITY” (HUDSON INSTITUTE OF MEDICAL RESEARCH, priority 2019, published 2022).

Tested on: human endometrial epithelial cells (HEECs)
Test: LC-MS/MS analysis of plasma membrane-enriched proteins of HEECs
Details: for Total unique peptides, Samples 1: sample 1, proliferative phase; for Total unique peptides, Samples 2: sample 2, proliferative phase; for Total unique peptides, Samples 3: sample 3, proliferative phase

Molecule | Total unique peptides, Samples 1 | Total unique peptides, Samples 2 | Total unique peptides, Samples 3
Epithelial cell adhesion molecule (protein, UniProt P16422 24-314, looked up) Epithelial cell adhesion …: QEECVCENYKLAVNCFVNNNRQCQCTSVGAQNTVICSKLAAKCLVMKAEMNGSKLGRRAKPEGALQNNDGLYDPDCDESGLFKAKQCNGTSMCWCVNTAGVRRTDKDTEITCSERVRTYWIIIELKHKAREKPYDSKSLRTALQKEITTRYQLDPKFITSILYENNVITIDLVQNSSQKTQNDVDIADVAYYFEKDVKGESLFHSKKMDLTVNGEQLDLDPGQTLIYYVDEKAPEFSMQGLKAGVIAVIVVVVIAVVAGIVVLVISRKKRMAKYEKAEIKEMGEMHRELNA | 3 | 3 | 2
Alpha-Parvin (protein, UniProt Q9NVD7 2-372, looked up) Alpha-parvin: ATSPQKSPSVPKSPTPKSPPSRKKDDSFLGKLGGTLARRKKAKEVSELQEEGMNAINLPLSPIPFELDPEDTMLEENEVRTMVDPNSRSDPKLQELMKVLIDWINDVLVGERIIVKDLAEDLYDGQVLQKLFEKLESEKLNVAEVTQSEIAQKQKLQTVLEKINETLKLPPRSIKWNVDSVHAKSLVAILHLLVALSQYFRAPIRLPDHVSIQVVVVQKREGILQSRQIQEEITGNTEALSGRHERDAFDTLFDHAPDKLNVVKKTLITFVNKHLNKLNLEVTELETQFADGVYLVLLMGLLEGYFVPLHSFFLTPDSFEQKVLNVSFAFELMQDGGLEKPKPRPEDIVNCDLKSTLRVLYNLFTKYRNVE | 4 | 6 | 2
Inactive tyrosine-protein kinase 7 (protein, UniProt Q13308 31-1070, looked up) Inactive tyrosine-protein …: AIVFIKQPSSQDALQGRRALLRCEVEAPGPVHVYWLLDGAPVQDTERRFAQGSSLSFAAVDRLQDSGTFQCVARDDVTGEEARSANASFNIKWIEAGPVVLKHPASEAEIQPQTQVTLRCHIDGHPRPTYQWFRDGTPLSDGQSNHTVSSKERNLTLRPAGPEHSGLYSCCAHSAFGQACSSQNFTLSIADESFARVVLAPQDVVVARYEEAMFHCQFSAQPPPSLQWLFEDETPITNRSRPPHLRRATVFANGSLLLTQVRPRNAGIYRCIGQGQRGPPIILEATLHLAEIEDMPLFEPRVFTAGSEERVTCLPPKGLPEPSVWWEHAGVRLPTHGRVYQKGHELVLANIAESDAGVYTCHAANLAGQRRQDVNITVATVPSWLKKPQDSQLEEGKPGYLDCLTQATPKPTVVWYRNQMLISEDSRFEVFKNGTLRINSVEVYDGTWYRCMSSTPAGSIEAQARVQVLEKLKFTPPPQPQQCMEFDKEATVPCSATGREKPTIKWERADGSSLPEWVTDNAGTLHFARVTRDDAGNYTCIASNGPQGQIRAHVQLTVAVFITFKVEPERTTVYQGHTALLQCEAQGDPKPLIQWKGKDRILDPTKLGPRMHIFQNGSLVIHDVAPEDSGRYTCIAGNSCNIKHTEAPLYVVDKPVPEESEGPGSPPPYKMIQTIGLSVGAAVAYIIAVLGLMFYCKKRCKAKRLQKQPEGEEPEMECLNGGPLQNGQPSAEIQEEVALTSLGSGPAATNKRHSTSDKMHFPRSSLQPITTLGKSEFGEVFLAKAQGLEEGVAETLVLVKSLQSKDEQQQLDFRRELEMFGKLNHANVVRLLGLCREAEPHYMVLEYVDLGDLKQFLRISKSKDEKLKSQPLSTKQKVALCTQVALGMEHLSNNRFVHKDLAARNCLVSAQRQVKVSALGLSKDVYNSEYYHFRQAWVPLRWMSPEAILEGDFSTKSDVWAFGVLMWEVFTHGEMPHGGQADDEVLADLQAGKARLPQPEGCPSKLYRLMQRCWALSPKDRPSFSEIASALGDSTVDSKP | 9 | 8 | 2
CD9 antigen (protein, UniProt P21926 2-228, looked up) CD9 antigen: PVKGGTKCIKYLLFGFNFIFWLAGIAVLAIGLWLRFDSQTKSIFEQETNNNNSSFYTGVYILIGAGALMMLVGFLGCCGAVQESQCMLGLFFGFLLVIFAIEIAAAIWGYSHKDEVIKEVQEFYKDTYNKLKTKDEPQRETLKAIHYALNCCGLAGGVEQFISDICPKKDVLETFTVKSCPDAIKEVFDNKFHIIGAVGIGIAVVMIFGMIFSMILCCAIRRNREMV | 2 | 3 | 1
